PubChem BioAssay AID602196 | INSERM – 2012
Here is a random part of about 23,000 reagents tested. In the full data, 455 (2%) are marked active. 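Active includes both protection and sensitisation; some change values fall well beyond the stated -50 to +50 range.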 The record does not give: the amount of reagent.

Purpose: 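Knock-downs that protect lung cancer cells from cisplatin or sensitise them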
System: human A549 lung cancer cells
Reagents: siRNA pair against human genes
Time to read-out: 48 h transfection before cisplatin; time from cisplatin to read-out not stated
Challenge: cisplatin at a dose killing half of control-siRNA cells; exact dose and duration not given
Measurement: 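Shift in cisplatin death relative to control siRNA, from -50 (all cells die) to +50 (no cells die); siRNAs harmful on their own scored 0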
Direction: two-siRNA summed score (-2 to +2): higher = both siRNAs protect from cisplatin killing; -2 means both sensitise; mean protection from cisplatin (shift in death) and protection from cisplatin (shift in death), siRNA C and protection from cisplatin (shift in death), siRNA D: higher = protection from cisplatin killing
Hit rule: 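siRNAs harmful alone (LDH or WST-1) get 0; others get +1 for less and -1 for more cisplatin killing; genes are active when the two siRNAs give the same sign, summing to ±2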
Meaning of the calls: active = both siRNAs shift cisplatin killing the same way; inactive = no consistent shift, or siRNA harmful alone

two-siRNA summed score (-2 to +2)	mean protection from cisplatin (shift in death) (%)	protection from cisplatin (shift in death), siRNA C (%)	protection from cisplatin (shift in death), siRNA D (%)	Outcome	target
0	4.7	2.1	7.3	inactive	MT1M
0	15.3	20.6	10.1	inactive	LOC389321
0	1.7	7.4	-3.9	inactive	LINC01597
0	-1.3	-2.9	0.3	inactive	LNCRI
0	0.5	4.2	-3.3	inactive	TAAR8
1	12.6	4.8	20.4	inactive	OR2Z1
0	3.9	0.4	7.4	inactive	C1QTNF2
0	9.5	9.1	9.9	inactive	FLJ13815
0	-4.3	-7.1	-1.4	inactive	TAF6
0	-1.9	3	-6.7	inactive	ABTB3
-1	0.9	-9	10.9	inactive	AKAP13
1	6.2	-11.1	23.5	inactive	COL8A1
0	6.7	13.5	-0.1	inactive	APOBEC3C
-1	-6.1	-3.3	-8.9	inactive	DCT

Reformatted: results already given.
two-siRNA summed score (-2 to +2) | mean protection from cisplatin (shift in death) (%) | protection from cisplatin (shift in death), siRNA C (%) | protection from cisplatin (shift in death), siRNA D (%) | Outcome | target
0 | 15.3 | 20.6 | 10.1 | inactive | LOC389321
0 | 1.7 | 7.4 | -3.9 | inactive | LINC01597
0 | -1.3 | -2.9 | 0.3 | inactive | LNCRI
0 | 0.5 | 4.2 | -3.3 | inactive | TAAR8
1 | 12.6 | 4.8 | 20.4 | inactive | OR2Z1
0 | 3.9 | 0.4 | 7.4 | inactive | C1QTNF2

The list goes on.
two-siRNA summed score (-2 to +2)	mean protection from cisplatin (shift in death) (%)	protection from cisplatin (shift in death), siRNA C (%)	protection from cisplatin (shift in death), siRNA D (%)	Outcome	target
0	-10.4	-1	-19.7	inactive	ETV7
-1	-2.3	-10.8	6.2	inactive	LOC401923
0	-1.9	1.4	-5.1	inactive	APBB2
0	9.9	10.8	9.1	inactive	CPXCR1
1	20.3	30.2	10.4	inactive	CR1L
0	-5.7	2.6	-14.1	inactive	RACK1
0	-5.2	-4.3	-6	inactive	BHMT2
1	0.5	-17.9	18.9	inactive	BLTP1
-1	2.6	15.6	-10.4	inactive	SCMH1
0	6.3	-2	14.5	inactive	LOC339306
0	-4.7	-0.1	-9.4	inactive	RASGRP4
0	10.3	10.2	10.4	inactive	LOC441133
0	-6	-9.3	-2.8	inactive	PPP2R5A
0	8.8	12.1	5.5	inactive	THRAP3
0	25.2	26.4	24	inactive	RPL11
0	0.6	-4.5	5.8	inactive	CNN2P13
1	17.8	18.9	16.7	inactive	LOC390557
0	2.9	-3.2	9	inactive	HSPA6
0	0.6	-0.1	1.3	inactive	CPSF3
1	11.3	3.6	19	inactive	SUMF1
0	-16.5	2.8	-35.8	inactive	GZMM
0	8.4	12.8	3.9	inactive	ARPC2
0	1.9	1.8	2	inactive	LOC388528
0	6.2	8	4.3	inactive	LOC400221
0	-2.6	1.5	-6.6	inactive	CNP
